According to publication PMC3649978:
These are yes or no findings as the source states them, for the method shown. In cells and extracts the contact can be indirect. Binding can be weak; no strength is given. Tags and fused reporters may be left off the sequences shown.

B1: EB1_(125–268)-GFP (mouse EB1 residues 125-268) (domain or fragment, UniProt Q61166 125-268)
chain: DPVAARQGQETAVAPSLVAPALSKPKKPLGSSTAAPQRPIATQRTTAAPKAGPGMVRKNPGVGNGDDEAAELMQQVKVLKLTVEDLEKERDFYFGKLRNIELICQENEGENDPVLQRIVDILYATDEGFVIPDEGGPQEEQEEY
B2: EB1_(1–133)-GFP (mouse EB1 residues 1-133) (domain or fragment, UniProt Q61166 1-133)
chain: MAVNVYSTSVTSDNLSRHDMLAWINESLQLNLTKIEQLCSGAAYCQFMDMLFPGSIALKKVKFQAKLEHEYIQNFKILQAGFKRMGVDKIIPVDKLVKGKFQDNFEFVQWFKKFFDANYDGKEYDPVAARQGQ

Molecular target: Halo-tagged p104-CT-V5 (p104 residues 470-871) (Theileria annulata)
Test: pull-down; Halo-tagged p104 fragments (C-terminal V5) linked to Halolink resin; about 500 µg lysate of COS-7 cells (untransfected, or expressing EB1-GFP fragments) incubated overnight; 5 washes with 500 mM NaCl and 0.01% tween-20; elution by TEV protease; immunoblot with anti-EB1, anti-GFP and anti-V5; only the target purified

| Binder | binding |
| --- | --- |
| B1 | binds |
| B2 | no binding |
